Results published in patent publication EP4545546B1, “INSECT NEUROPEPTIDES” (Solasta Bio Limited, priority 2023, dated 2025).
Part of at least one peptide drawing is inferred or uncertain, most often the ends. Square brackets hold non-standard residues; d marks the D form. Peptide text beside a SMILES is read from it. pGlu = O=C1CC[C@@H](C(=O)O)N1

What was measured:
Spodoptera frugiperda = assay: Lepidoptera artificial diet assay; type: in vivo; settings: unformulated peptide, final concentration 1x10^-4 M in artificial diet, one L1 larva per cell, n=10, 168 hrs; compared to negative control vehicle and DDT (Figure 4)
Plutella xylostella = assay: Leaf dip assay (IRAC method 018, Chinese cabbage); type: in vivo; settings: unformulated peptide at 2 × 10^-4 M in 0.5% DMSO, 8% ACN, 0.1% Tween-80 in water; 120 hours; Acetamiprid at 0.005% as comparator (Figure 5)

Structure (SMILES): CC(C)C[C@H](NC(=O)[C@@H]1CCC(=O)N1)C(=O)N[C@H](C(=O)N[C@@H](Cc1ccccc1)C(=O)N[C@H](C(=O)N[C@@H](CO)C(=O)N[C@@H](CO)C(=O)N[C@@H](Cc1c[nH]c2ccccc12)C(=O)NCC(=O)NCC(N)=O)[C@@H](C)O)[C@@H](C)O [SB-P-86, [Pyr]-LTFTSSWGG-[NH2]] ([pGlu]LTFTSSWGG-NH2)
- activity (pupation and mortality scored) (Spodoptera frugiperda): much higher activity
- activity (Plutella xylostella): good activity
